Experiment [1] deals with T1, IRAKM S110E (UniProt Q9Y616).
T1 sequence (looked up): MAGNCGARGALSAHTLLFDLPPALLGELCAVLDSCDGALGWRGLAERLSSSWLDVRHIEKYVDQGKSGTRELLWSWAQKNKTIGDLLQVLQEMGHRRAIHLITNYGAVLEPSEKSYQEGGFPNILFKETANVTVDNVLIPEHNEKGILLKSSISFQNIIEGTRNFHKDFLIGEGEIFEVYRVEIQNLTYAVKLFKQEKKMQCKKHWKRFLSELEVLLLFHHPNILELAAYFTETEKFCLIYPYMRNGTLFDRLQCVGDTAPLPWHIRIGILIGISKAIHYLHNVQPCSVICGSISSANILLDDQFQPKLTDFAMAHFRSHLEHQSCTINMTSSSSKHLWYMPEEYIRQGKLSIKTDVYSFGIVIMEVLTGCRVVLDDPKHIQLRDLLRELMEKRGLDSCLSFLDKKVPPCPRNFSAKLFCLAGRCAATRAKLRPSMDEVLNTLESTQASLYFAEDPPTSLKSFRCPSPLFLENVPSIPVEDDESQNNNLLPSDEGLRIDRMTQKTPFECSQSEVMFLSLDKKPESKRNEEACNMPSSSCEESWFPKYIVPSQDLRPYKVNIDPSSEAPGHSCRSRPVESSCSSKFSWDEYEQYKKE
Put plainly: CO-IP in DC2.4 cells (FIG. 58D).

By UniProt entry, the sequences of proteins in these tests, tags left out.
UniProt Q9QUR7: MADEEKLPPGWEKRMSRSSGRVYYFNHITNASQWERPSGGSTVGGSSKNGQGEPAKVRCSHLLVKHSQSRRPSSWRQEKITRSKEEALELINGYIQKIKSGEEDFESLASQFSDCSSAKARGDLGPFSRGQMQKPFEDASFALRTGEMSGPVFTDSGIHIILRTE

In experiment [2] the target is T1, IRAKM S110E. Kind of experiment: co-IP with anti-IRAKM antibody from DC2.4 cells stably expressing IRAKM, S110E or P111A, without and with IL33, western blot for Pin1. In general terms: Immunoblotting shows a protein as a band on a membrane.

These are yes or no findings as the source states them, for the method shown. In cells and extracts the contact can be indirect. Some entries that bind do so weakly or less than the wild type.

Regarding “Pin1, endogenous in DC2.4 cells (from UniProt Q9QUR7 1-165) (enzyme)”, the binding entry with IRAKM S110E [1] and in the experiment with IRAKM S110E [2] was “binds” throughout.

The values are drawn from patent US20170112792A1, “ENHANCED ATRA-RELATED COMPOUNDS DERIVED FROM STRUCTURE-ACTIVITY RELATIONSHIPS AND MODELING FOR INHIBITING PIN1” (Beth Israel Deaconess Medical Center, Inc., priority 2014, published 2017).
